Assay results: PubChem BioAssay AID540256 (National Center for Advancing Translational Sciences (NCATS), 2011)
Out of some 300,000 compounds screened, about 3,700 (1.2%) were called active. The inconclusive results got no clear call from the source; some entries with a clear call stand among them for comparison. Calls follow the shape of the full dose curve; tested in HEK293 cells. Where the call is inconclusive, the potency comes from a doubtful curve fit.

assay: qHTS for Inhibitors of binding or entry into cells for Lassa Virus; conditions: Lassa virus pseudotype entry inhibition, cell reporter; series mostly up to 37.9 µM; also: nearly all actives have a fitted effect of over 50% in size
Potency is read from the fitted curve at half-maximal effect.

With `O=C(CSc1nc(-c2cccc(F)c2)[nH]c1-c1ccccc1)Nc1ccc2c(c1)OCCO2` as the compound, how does the Potency read?
Its Potency is active: 10 µM.

Which Potency does the source give for `Cc1ccc(S(=O)(=O)Nc2ccccc2C(O)c2ccccc2)cc1` (stereo unspecified) here?
The Potency was inconclusive: 15.8 µM [inhibitor, partial curve, poor fit].

Which Potency does the source give for `CCN1CCN(C(=O)COc2ccc(S(=O)(=O)NC(C)C)cc2)CC1` here?
Its Potency is inconclusive: 7.3 µM [inhibitor, partial curve, poor fit].

Which Potency does the source give for `Cc1nnc(NC(=O)CSc2nccn2Cc2ccc(F)cc2)s1` here?
The Potency was inconclusive: 6.31 µM [inhibitor, partial curve, poor fit].

Which Potency does the source give for `COC(=O)c1cc(S(=O)(=O)C(C)C)c(S(C)=O)s1` (stereo unspecified) here?
The Potency was “inactive”.

Which Potency does the source give for `COc1ccccc1-n1c(-c2ccccc2Br)nc2ccccc2c1=O` here?
The Potency was inconclusive: 35.5 µM [inhibitor, single point].

For `COc1cc(N=CC2=C(O)c3ccccc3C2=O)cc(OC)c1`, which Potency is on record?
The Potency was “inactive”.

Which Potency does the source give for `COc1ccccc1C(=O)Nc1nc(-c2cccs2)c(NC(C)=O)s1` here?
Its Potency is “inactive”.

With `CCN1CCS/C1=C/C=C/C1=[N+](CC)CCS1` as the compound, how does the Potency read?
The Potency was inconclusive: 10 µM [inhibitor, partial curve].

Which Potency does the source give for `COC(=O)c1ccc(C2c3c(-c4ccccc4O)n[nH]c3C(=O)N2Cc2ccncc2)cc1` (stereo unspecified) here?
The Potency was inconclusive: 3.16 µM [inhibitor, partial curve, poor fit].

With `CCN(C(=O)c1cc2c(C)nc3ccccc3c2o1)c1cc(Cl)ccc1OC` as the compound, how does the Potency read?
The Potency was inconclusive: 8.91 µM [inhibitor, partial curve, poor fit].

With `CC1CN(S(=O)(=O)c2ccc(NC(=O)c3cc(-c4ccccc4O)n[nH]3)cc2)CC(C)O1` (stereo unspecified) as the compound, how does the Potency read?
Its Potency is active: 20.6 µM.

Which Potency does the source give for `COc1ccc(-c2nc(CNS(=O)(=O)c3ccc(Br)cc3)cs2)cc1` here?
The Potency was “inactive”.

For `Cc1ccccc1OCCC(=O)OCC(=O)NC1CCCCC1`, which Potency is on record?
The Potency was inconclusive: 1.26 µM [activator, single point].

Which Potency does the source give for `Cc1ccc(NS(=O)(=O)c2ccc(NC(=O)c3cccc(NC(=O)C(C)C)c3)cc2)cc1` here?
The Potency was inconclusive: 11.2 µM [inhibitor, partial curve, poor fit].

With `CC(C)Cn1c(N)c(/C=N/NC(=O)c2ccc(Cl)cc2)c(=O)n(C)c1=O` as the compound, how does the Potency read?
Its Potency is “inactive”.

With `COC(=O)c1cccc(NC(=O)NC(=O)c2ccccc2Cl)c1` as the compound, how does the Potency read?
Its Potency is inconclusive: 3.55 µM [inhibitor, full curve, poor fit].

For `CC(C)CN(CC(C)C)S(=O)(=O)c1ccc(C(=O)Nc2sc3c(c2C(N)=O)CC(C)(C)NC3(C)C)cc1`, which Potency is on record?
Its Potency is “inactive”.

With `COc1ccc(S(=O)(=O)N2CCCCCC2)cc1NC(=O)Cc1cc(OC)c(OC)c(OC)c1` as the compound, how does the Potency read?
Its Potency is “inactive”.

With `S=C1SCN(Cc2cccnc2)CN1Cc1cccnc1` as the compound, how does the Potency read?
The Potency was inconclusive: 31.6 µM [inhibitor, partial curve, poor fit].

For `Cc1cc(C)n(-c2nc3ccccc3c(=O)n2OCc2ccc(F)cc2)n1`, which Potency is on record?
The Potency was “inactive”.

Which Potency does the source give for `CC1Cc2ccccc2N1C(=O)CSc1nnc(-c2ccccc2)c(-c2ccccc2)n1` (stereo unspecified) here?
Its Potency is inconclusive: 20.6 µM [inhibitor, single point].

Which Potency does the source give for `Cc1cccc(NC(=S)NNC(=O)c2ccccc2Br)c1` here?
The Potency was inconclusive: 2.59 µM [activator, full curve, poor fit].

With `Cc1ccc2nc(NC(=O)c3cccc(-c4cc5ccccc5oc4=O)c3)sc2c1` as the compound, how does the Potency read?
Its Potency is inconclusive: 29.1 µM [inhibitor, single point].

Which Potency does the source give for `COc1ccccc1N1CCN(C(c2ccc(Cl)cc2)c2nnnn2C(C)(C)C)CC1` (stereo unspecified) here?
The Potency was inconclusive: 12.6 µM [inhibitor, partial curve, poor fit].

Which Potency does the source give for `O=C(Nc1ccc(N2CCN(C(=O)c3ccco3)CC2)cc1)c1cccc(F)c1` here?
Its Potency is “inactive”.

For `O=C(N/N=C\c1cccnc1)C1c2ccccc2Oc2ccccc21`, which Potency is on record?
Its Potency is “inactive”.

For `Cc1ccc(NC(=S)N(Cc2ccco2)C(C)c2cccs2)c(Cl)c1` (stereo unspecified), which Potency is on record?
The Potency was inconclusive: 12.6 µM [inhibitor, partial curve, poor fit].

Which Potency does the source give for `COc1ccc(CCNC(=O)COC(=O)COc2c(C)cc(C)cc2C)cc1OC` here?
The Potency was inconclusive: 6.31 µM [activator, full curve, poor fit].

Which Potency does the source give for `Cc1ccc(C)c(NC(=O)c2ccc3ccccc3n2)c1` here?
Its Potency is inconclusive: 6.31 µM [inhibitor, partial curve, poor fit].

With `O=C(c1ccco1)N1CCN(C23CC4CC(CC(C4)C2)C3)CC1` as the compound, how does the Potency read?
The Potency was “inactive”.

Which Potency does the source give for `O=C1NCC2=C1C(c1ccc(Br)cc1)Nc1ccccc1N2` (stereo unspecified) here?
Its Potency is “inactive”.

Which Potency does the source give for `O=C(ONC(=O)C1C2C=CC(C2)C1C(=O)NOC(=O)c1ccccc1)c1ccccc1` (stereo unspecified) here?
Its Potency is active: 7.94 µM.

With `O=C(Nc1cccc(S(=O)(=O)N2CCCC2)c1)c1ccccc1OC(F)F` as the compound, how does the Potency read?
Its Potency is inconclusive: 25.1 µM [inhibitor, partial curve, poor fit].

Which Potency does the source give for `C=C(C)COc1ccc2c(C)c(C)c(=O)oc2c1OCC(=C)C` here?
The Potency was inconclusive: 35.5 µM [inhibitor, single point].

For `Cc1cc(-c2ccc(S(=O)(=O)Nc3ccccc3F)s2)on1`, which Potency is on record?
Its Potency is inconclusive: 12.6 µM [activator, partial curve, poor fit].

With `CCCN(CCC)S(=O)(=O)c1ccc(NC(=O)C2CCCO2)cc1` (stereo unspecified) as the compound, how does the Potency read?
The Potency was inconclusive: 17.8 µM [inhibitor, single point].

With `Clc1ccc(OCc2nnc(SCCN3CCCCC3)n2Cc2ccco2)cc1` as the compound, how does the Potency read?
Its Potency is “inactive”.

With `O=S(=O)(c1cccs1)N1CCN(c2ccnc3cc(Cl)ccc23)CC1` as the compound, how does the Potency read?
Its Potency is inconclusive: 35.5 µM [inhibitor, single point].

Which Potency does the source give for `CCOC(=O)N1CCC(N2CCCC(C(=O)c3cccc(OC(C)C)c3)C2)CC1` (stereo unspecified) here?
Its Potency is inconclusive: 1.26 µM [inhibitor, partial curve, poor fit].

For `C#CCN(C)CC/C=C1\c2ccccc2CSc2ccccc21`, which Potency is on record?
Its Potency is “inactive”.

With `O=S(=O)(c1ccc(Cl)cc1)c1nc(-c2ccccc2F)oc1NCCN1CCOCC1` as the compound, how does the Potency read?
The Potency was inconclusive: 3.55 µM [inhibitor, full curve, poor fit].

Which Potency does the source give for `COc1ccc(F)cc1S(=O)(=O)NCC(c1ccco1)N1CCc2ccccc2C1` (stereo unspecified) here?
Its Potency is “inactive”.

With `COc1ccc(OCCSc2ncccn2)cc1` as the compound, how does the Potency read?
The Potency was inconclusive: 4.61 µM [activator, partial curve].

Which Potency does the source give for `Cn1c(=O)c2c(ncn2CC(=O)OCC(=O)NCCc2ccccc2)n(C)c1=O` here?
The Potency was “inactive”.

With `CC1CCN(S(=O)(=O)c2ccc(C(=O)Nc3nnc(-c4ccncc4)o3)cc2)CC1` as the compound, how does the Potency read?
The Potency was inconclusive: 12.6 µM [inhibitor, partial curve, poor fit].

For `CCc1cc(C(=O)NCc2ccccc2)no1`, which Potency is on record?
Its Potency is inconclusive: 35.5 µM [activator, single point].

Which Potency does the source give for `O=C(NCc1ccccc1)C(=O)Nc1ccc2nc3n(c(=O)c2c1)CCCCC3` here?
The Potency was “inactive”.

Which Potency does the source give for `CC(=O)Nc1ccc(Nc2nc(C)c([N+](=O)[O-])c(Nc3ccccc3)n2)cc1` here?
The Potency was inconclusive: 18.4 µM [inhibitor, single point].

Which Potency does the source give for `CCN1C(=O)/C(=C/c2nc3ccccc3c(=O)n2-c2ccccc2)c2ccccc21` here?
Its Potency is inconclusive: 5.01 µM [inhibitor, partial curve].

Which Potency does the source give for `Cc1nnc(NC(=O)c2nc(SCc3ccccc3F)ncc2Cl)s1` here?
The Potency was “inactive”.

With `O=c1cc(C(F)(F)F)[nH]c2c(OC(F)(F)F)cccc12` as the compound, how does the Potency read?
The Potency was “inactive”.

With `Cc1nnsc1C(=O)NC(=O)Nc1ccc(F)c(Cl)c1` as the compound, how does the Potency read?
The Potency was inconclusive: 6.31 µM [inhibitor, single point].

Which Potency does the source give for `CCCCc1nnc(NC(=O)C2CCN(c3ncnc4sc(C)c(C)c34)CC2)s1` here?
The Potency was “inactive”.

With `CCCc1cc(=O)[nH]c(SCCCCN2C(=O)c3ccccc3C2=O)n1` as the compound, how does the Potency read?
The Potency was “inactive”.

Which Potency does the source give for `O=C(CSc1nnc(-c2ccncc2)o1)Nc1ccccc1Cl` here?
Its Potency is “inactive”.

For `Cc1ccc(-c2nnn3c2nc(NCC(C)c2ccccc2)c2ccccc23)cc1` (stereo unspecified), which Potency is on record?
The Potency was “inactive”.

For `Cc1ccc(/C=N/NC(=O)c2ccccn2)s1`, which Potency is on record?
Its Potency is inconclusive: 17.8 µM [inhibitor, partial curve, poor fit].

Which Potency does the source give for `O=C(COC(=O)c1cccs1)c1ccccc1` here?
Its Potency is inconclusive: 3.98 µM [activator, full curve, poor fit].

With `COc1ccc(-c2nn(-c3ccccc3)cc2/C=N/Nc2ccc(S(N)(=O)=O)cc2[N+](=O)[O-])cc1OC` as the compound, how does the Potency read?
Its Potency is inconclusive: 4.47 µM [inhibitor, partial curve].

For `CC(=O)Nc1ccc(NC2=C(Cl)C(=O)c3ccccc3C2=O)cc1`, which Potency is on record?
The Potency was inconclusive: 3.55 µM [inhibitor, full curve, poor fit].

For `O=C(NCc1ccccc1F)c1cccc(S(=O)(=O)N2CCCCC2)c1`, which Potency is on record?
The Potency was inconclusive: 0.1 µM [inhibitor, full curve, poor fit].

With `COc1ccccc1N1C(N)=NC(N)=NC12CCCCC2` as the compound, how does the Potency read?
The Potency was “inactive”.

For `CC1Oc2ccccc2N(CC(=O)NC2CCCCC2)C1=O` (stereo unspecified), which Potency is on record?
The Potency was “inactive”.

With `CCN1CCN(c2ncnc3c2cnn3-c2ccc(C)c(C)c2)CC1` as the compound, how does the Potency read?
The Potency was inconclusive: 10 µM [activator, partial curve, poor fit].

Which Potency does the source give for `CCOc1ccc(NC(=O)c2cc3ccccc3cc2OC)cc1` here?
The Potency was inconclusive: 0.891 µM [inhibitor, single point].

Which Potency does the source give for `CCCOc1cccc(C2/C(=C(/O)c3ccccc3)C(=O)C(=O)N2CCN(C)C)c1` (stereo unspecified) here?
Its Potency is inconclusive: 3.98 µM [inhibitor, single point].

For `O=C(C[n+]1cc(-c2ccc(F)cc2)n2c1CCC2)Nc1nc(-c2ccccc2)cs1`, which Potency is on record?
The Potency was “inactive”.

For `O=C(CN1C(=O)COc2ccc(S(=O)(=O)NC3CCCC3)cc21)Nc1ccc(Cl)cc1`, which Potency is on record?
Its Potency is “inactive”.

Which Potency does the source give for `C/C(N)=C(/C#N)C(=O)COC(=O)COc1ccc(Cl)cc1` here?
Its Potency is “inactive”.

With `C[C@@H]1[C@@H](c2ccccc2)Oc2c(Cl)cccc2S(=O)(=O)N1Cc1ccc(Cl)cc1` as the compound, how does the Potency read?
The Potency was inconclusive: 1.99 µM [activator, partial curve].
